Laboratory results published in patent publication US10006912B2, “Peptides for diagnosing lyme disease” (B[…]., priority 2013, dated 2018).
At least one peptide structure holds a part that was inferred or is arguable (an end, a ring closure or a residue). Where a SMILES comes first, the peptide text is derived from it.

Experiments:
Set-up in all cases: species or system human
[1] = test system: serum IgM + IgG; assay: ELISA, total antibody (IgM, IgG or both) binding to peptide or recombinant protein
[2] = test system: serum IgG; assay: ELISA, serum IgG binding to peptide or recombinant protein
[3] = test system: serum IgM; assay: ELISA, serum IgM binding to peptide or recombinant protein
[4] = share of sera Equivocal (between 2 SD and 3 SD from mean of healthy controls), Early Lyme = erythema migrans positive
[5] = share of sera Equivocal (between 2 SD and 3 SD from mean of healthy controls), Late Lyme = Lyme arthritis
[6] = share of sera Equivocal (between 2 SD and 3 SD from mean of healthy controls), RPR+ (syphilis) sera
[7] = share of sera Equivocal (between 2 SD and 3 SD from mean of healthy controls), healthy control sera
[8] = share of sera Equivocal (between 2 SD and 3 SD from mean of healthy controls), rheumatoid arthritis sera
[9] = share of sera Negative (less than 2 SD from mean of healthy controls), Early Lyme = erythema migrans positive
[10] = share of sera Negative (less than 2 SD from mean of healthy controls), Late Lyme = Lyme arthritis
[11] = share of sera Negative (less than 2 SD from mean of healthy controls), RPR+ (syphilis) sera
[12] = share of sera Negative (less than 2 SD from mean of healthy controls), healthy control sera
[13] = share of sera Negative (less than 2 SD from mean of healthy controls), rheumatoid arthritis sera
[14] = absorbance 450 nm, serum 1:100, EM and LA sera vs normal, RA, RPR+
[15] = share of sera Positive (more than 3 SD from mean of healthy controls), Early Lyme = erythema migrans positive, serum 1:100, listed as DbpB(38-67)
[16] = share of sera Positive (more than 3 SD from mean of healthy controls), Late Lyme = Lyme arthritis, serum 1:100
[17] = share of sera Positive (more than 3 SD from mean of healthy controls), RPR+ (syphilis) sera, serum 1:100
[18] = share of sera Positive (more than 3 SD from mean of healthy controls), healthy control sera, serum 1:100
[19] = share of sera Positive (more than 3 SD from mean of healthy controls), rheumatoid arthritis sera, serum 1:100

CC[C@H](C)[C@H](NC(=O)[C@H](CCCCN)NC(=O)[C@H](CC(N)=O)NC(=O)[C@H](CCCCN)NC(=O)[C@H](CC(C)C)NC(=O)[C@H](CC(=O)O)NC(=O)[C@@H](N)CCCCN)C(=O)N[C@@H](CC(C)C)C(=O)N[C@@H](CCCCN)C(=O)N[C@H](C(=O)N[C@@H](CCCCN)C(=O)N[C@@H](CCCCN)C(=O)N[C@@H](CCC(=O)O)C(=O)N[C@@H](C)C(=O)N[C@H](C(=O)NCC(=O)N[C@@H](CCCCN)C(=O)NCC(=O)N[C@H](C(=O)N[C@@H](CC(C)C)C(=O)N[C@@H](Cc1ccccc1)C(=O)N[C@@H](CCC(=O)O)C(=O)N[C@@H](C)C(=O)N[C@@H](Cc1ccccc1)C(=O)N[C@H](C(=O)NCC(=O)N[C@@H](CC(C)C)C(=O)N[C@@H](CCCCN)C(=O)N[C@H](C(=O)NCC(=O)O)[C@@H](C)O)[C@@H](C)O)C(C)C)[C@@H](C)O)[C@@H](C)CC [DbpB6] (H-KDLKNKILKIKKEATGKGVLFEAFTGLKTG-OH)
efficiency as diagnostic target in Lyme arthritis patients (in words) ([1]; late Lyme disease sera (n=20)): not efficient | Total Antibody Equiv, Early Lyme [1, 4]: 12.5% | Total Antibody Equiv, Late Lyme [1, 5]: 15.0% | Total Antibody Equiv, RPR+ [1, 6]: 15.6% | Total Antibody Equiv, Normal [1, 7]: 1.6% | Total Antibody Equiv, RA [1, 8]: 10.9% | Total Antibody Neg, Early Lyme [1, 9]: 39.4% | Total Antibody Neg, Late Lyme [1, 10]: 75.0% | Total Antibody Neg, RPR+ [1, 11]: 78.1% | Total Antibody Neg, Normal [1, 12]: 93.8% | Total Antibody Neg, RA [1, 13]: 89.1% | Total Antibody Pos, Early Lyme ([1]; share of sera with either IgM, IgG or both Positive (more than 3 SD from mean of healthy controls), Early Lyme = erythema migrans positive): 48.1% | Total Antibody Pos, Early Lyme ([1]; share of sera with either IgM, IgG or both Positive (more than 3 SD from mean of healthy controls), Early Lyme = erythema migrans positive, listed as DbpB(38-67)): 48.0% | Total Antibody Pos, Late Lyme ([1]; share of sera with either IgM, IgG or both Positive (more than 3 SD from mean of healthy controls), Late Lyme = Lyme arthritis): 10.0% | Total Antibody Pos, RPR+ ([1]; share of sera with either IgM, IgG or both Positive (more than 3 SD from mean of healthy controls), RPR+ (syphilis) sera): 6.3% | Total Antibody Pos, RPR+ ([1]; share of sera with either IgM, IgG or both Positive (more than 3 SD from mean of healthy controls), RPR+ (syphilis) sera, listed as DbpB(38-67)): 6.3% | Total Antibody Pos, Normal ([1]; share of sera with either IgM, IgG or both Positive (more than 3 SD from mean of healthy controls), healthy control sera): 4.7% | Total Antibody Pos, Normal ([1]; share of sera with either IgM, IgG or both Positive (more than 3 SD from mean of healthy controls), healthy control sera, listed as DbpB(38-67)): 4.7% | Total Antibody Pos, RA ([1]; share of sera with either IgM, IgG or both Positive (more than 3 SD from mean of healthy controls), rheumatoid arthritis sera): 0% | Total Antibody Pos, RA ([1]; share of sera with either IgM, IgG or both Positive (more than 3 SD from mean of healthy controls), rheumatoid arthritis sera, listed as DbpB(38-67)): 0% | binding of serum IgG, Lyme disease sera compared with control sera (in words) [2, 14]: enhanced binding | IgG Equiv, Early Lyme [2, 4]: 8.7% | IgG Equiv, Late Lyme [2, 5]: 10.0% | IgG Equiv, RPR+ [2, 6]: 15.6% | IgG Equiv, Normal [2, 7]: 0.0% | IgG Equiv, RA [2, 8]: 8.7% | IgG Neg, Early Lyme [2, 9]: 68.3% | IgG Neg, Late Lyme [2, 10]: 85.0% | IgG Neg, RPR+ [2, 11]: 78.1% | IgG Neg, Normal [2, 12]: 98.4% | IgG Neg, RA [2, 13]: 91.3% | IgG Pos, Early Lyme ([2]; share of sera Positive (more than 3 SD from mean of healthy controls), Early Lyme = erythema migrans positive, serum 1:100): 23.0% | IgG Pos, Early Lyme [2, 15]: 23.1% | IgG Pos, Late Lyme [2, 16]: 5.0% | IgG Pos, RPR+ [2, 17]: 6.3% | IgG Pos, Normal [2, 18]: 1.6% | IgG Pos, RA [2, 19]: 0.0% | binding of serum IgM, Lyme disease sera compared with control sera (in words) [3, 14]: enhanced binding | IgM Equiv, Early Lyme [3, 4]: 11.6% | IgM Equiv, Late Lyme [3, 5]: 5.0% | IgM Equiv, RPR+ [3, 6]: 0.0% | IgM Equiv, Normal [3, 7]: 1.6% | IgM Equiv, RA [3, 8]: 4.3% | IgM Neg, Early Lyme [3, 9]: 46.6% | IgM Neg, Late Lyme [3, 10]: 90.0% | IgM Neg, RPR+ [3, 11]: 100.0% | IgM Neg, Normal [3, 12]: 95.3% | IgM Neg, RA [3, 13]: 95.7% | IgM Pos, Early Lyme [3, 15]: 41.7% | IgM Pos, Late Lyme [3, 16]: 5.0% | IgM Pos, RPR+ [3, 17]: 0.0% | IgM Pos, Normal [3, 18]: 3.1% | IgM Pos, RA [3, 19]: 0.0%
